Experimental data: patent publication US8128967B2, “Polyphenol coxib combinations and methods” (Mitsui Norin Co., Ltd., priority 2005, dated 2012)
At least one compound was matched to its structure with a doubt left.

Key:
[1] = tested on: cisplatin-induced lung tumors; assay: Experiment 1: Celecoxib with EGCg or Polyphenon E on cisplatin-induced lung tumor incidence and multiplicity; type: in vivo, A/J mice; conditions: Celecoxib alone, 150 ppm and 1,500 ppm in diet, both dose groups versus control
[2] = tested on: cisplatin-induced lung tumors; conditions: administered as individual compounds; Carcinogenesis 21(5):915, 2000; Proc AACR 44 #4920; cited from earlier work

## Cc1ccc(-c2cc(C(F)(F)F)nn2-c2ccc(S(N)(=O)=O)cc2)cc1 [Cox, celecoxib]
[1]
  tumor suppression as well as multiplicity (in words): insignificant
[2]
  inhibition of cisplatin-induced lung tumors (in words): partially inhibits
